Measured values taken from PubChem BioAssay AID2685 (National Center for Advancing Translational Sciences (NCATS), 2010).
This is one part of the list. These are further read-outs of the screen, such as a control signal, another cell line or another target. No call is given for them. The list favours compounds with an active or inconclusive main result. The note in brackets gives the kind of curve behind each potency; many fits are weak.

Assay: qHTS Assay for Lipid Storage Modulators in Drosophila S3 Cells;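 for cell number change: cells counted by Cell Tracker Red CMTPX staining in the red channel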
Details: BODIPY lipid droplet fluorescence, 18-24 h; for cell number change: measured here: cell count max response, cells fed with added oleic acid
Outline: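 Drosophila S3 cells got compounds at several concentrations plus oleic acid (400 uM solution). Laser-scanning cytometry with 488 nm excitation read lipid droplets at 500-530 nm and cells at 575-640 nm. Percent activity was relative to 20 uM Triacsin C.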

[1] = measured here: cell number channel AC50, cells fed with added oleic acid
[2] = measured here: lipid fluorescence (Fed channel) AC50, cells fed with added oleic acid

Structure (SMILES) | cell number change [%] | AC50 [1] | AC50 [2]
Cc1cc(C)cc(-n2ncc3c2CCCC3NC(=O)CCN2Cc3ccccc3C2=O)c1 (stereo not given) | -29.2 | 5.17 µM [falling, full curve, poor fit] | 29.1 µM [falling, single point]
FC(F)(F)c1cc(-c2ccccc2)nc(NCc2cccs2)n1 | -35.8 | 14.6 µM [falling, partial curve] | 8.2 µM [falling, partial curve, poor fit]
O=C(CN1C(=O)C2C3C=CC(C3)C2C1=O)Nc1nncs1 (stereo not given) | 8.98 |  | 
COc1ccc(CCn2nnnc2C(c2ccc(Cl)cc2)N2CCN(C)CC2)cc1OC (stereo not given) | 0.415 | 0.146 µM [falling, full curve, poor fit] | 
Cc1ccc(CNC(=O)CS(=O)Cc2nc(-c3cccs3)oc2C)cc1 (stereo not given) | 61.4 | 1.64 µM [rising, full curve] | 1.46 µM [rising, partial curve]
COc1ccc(CCNC(=O)c2cc(S(=O)(=O)N3CCOCC3)cn2C)cc1OC | -15.6 |  | 0.00411 µM [falling, full curve, poor fit]
CN(C)Cc1ccc(CNC(=O)c2ccc(Cl)c(S(=O)(=O)NC3CC3)c2)cc1 | -6.33 |  | 2.31 µM [falling, partial curve]
C/C(Cn1nnc([N+](=O)[O-])n1)=N\NC(=O)c1ccccc1O | -22.2 |  | 25.9 µM [falling, partial curve]
CCCc1nc2nc(C)c(NS(=O)(=O)c3ccc4c(c3)CCCC4)c(=O)n2[nH]1 | -7.94 |  | 5.17 µM [rising, full curve]
COC(=O)c1cc2sccc2n1CC(=O)N1CCCc2ccccc21 |  | 2.31 µM [rising, partial curve] | 2.91 µM [rising, partial curve]
O=C(OCCOc1cccc(Cl)c1)c1ccc2ncsc2c1 | 3.6 |  | 29.1 µM [rising, single point]
CN(C)CC(=O)Nc1cc(C(F)(F)F)ccc1Cl |  |  | 29.1 µM [falling, single point]
Cc1ccc(NC(=O)C2CCN(S(=O)(=O)c3ccc(N4CCCC4=O)cc3)CC2)cc1Cl | -30.8 | 9.2 µM [falling, single point] | 3.66 µM [falling, partial curve]
CCOc1ccc(CCNC(=O)c2cccnc2N2CCCC2)cc1OCC | 22.3 |  | 23.1 µM [rising, single point]
COC(=O)CC(NS(=O)(=O)c1cccs1)c1ccc2c(c1)OCO2 (stereo not given) | -18.4 |  | 7.08 µM [falling, partial curve]
CN(Cc1ccccc1)c1nc2c(c(=O)n(C)c(=O)n2C)n1CCCc1ccccc1 |  | 6.51 µM [rising, single point] | 
CCOC(=O)CN1C(=O)N[C@@H](c2ccccc2)C(C(C)=O)=C1C | 17.5 |  | 
C/C(=N\NC(=O)c1ccc(CSc2nncn2C)cc1)c1ccc2ccccc2c1 | 14.3 |  | 3.26 µM [rising, single point]
COC(=O)c1sc(-c2cccs2)cc1NC(=O)/C=C/C(=O)O | -16.7 |  | 29.1 µM [falling, single point]

Structure (SMILES) | cell number change [%] | AC50 [1] | AC50 [2]
O=C(Nc1ccc(N2CCOCC2)c(Cl)c1)c1ccc(-n2cnnc2)cc1 | 8.62 |  | 1.84 µM [falling, partial curve]
CN(C)C(=O)CSc1nnc2sc3ccccc3n12 | -32.6 | 6.51 µM [falling, single point] | 0.00461 µM [falling, full curve, poor fit]
O=S(=O)(NC1CCCCC1NCc1ccco1)c1ccc(Cl)cc1 (stereo not given) | -6.45 | 1.84 µM [falling, partial curve] | 6.51 µM [falling, single point]
CC(=O)c1noc(C)c1C(=O)Nc1nccs1 |  |  | 0.58 µM [rising, single point]
O=C(CC(=O)NC1CCCCC1)N/N=C/c1ccccc1F | 80.6 | 29.1 µM [rising, single point] | 
Cc1ccc(C(C(=O)NC2CCCCC2)N(CCCN2CCOCC2)C(=O)c2snc(C(N)=O)c2N)cc1 (stereo not given) | 4.76 |  | 6.51 µM [falling, single point]
CCOC(=O)C1=C(CNCCc2ccc(Cl)cc2)NC(=O)NC1c1ccc2c(c1)OCO2 (stereo not given) | 199 | 5.17 µM [rising, partial curve] | 4.61 µM [rising, partial curve]
O=C(COC(=O)CCCN1C(=O)c2cccc3cccc(c23)C1=O)Nc1cccc(Br)c1 | 40.6 | 25.9 µM [rising, single point] | 20.6 µM [rising, single point]
O=C(NCC1CCCO1)c1cc(-c2ccco2)nc2ccccc12 (stereo not given) | -19.5 |  | 4.11 µM [rising, partial curve]
CC(C)C(NS(=O)(=O)c1cccc2nsnc12)C(=O)NCc1ccc2c(c1)OCO2 (stereo not given) | -19.2 | 0.0058 µM [falling, full curve, poor fit] | 0.0461 µM [falling, full curve, poor fit]
O=C1c2ccccc2-c2nnc(-c3ccc(O)cc3)cc21 | -13.1 |  | 
Cc1cc(O)c(-c2cc(O)c(C)cc2O)cc1O | -68.3 | 18.4 µM [falling, partial curve] | 29.1 µM [falling, single point]
N#Cc1c(NC(=O)C2CC2)sc2c1CCCCC2 | -42.3 | 29.1 µM [falling, single point] | 14.6 µM [falling, partial curve, poor fit]
COc1cc2nc(N3CCN(C(=O)[C@H]4COc5ccccc5O4)CC3)nc(N)c2cc1OC | 8.03 |  | 6.51 µM [falling, single point]
Cc1ccc(C(=O)c2ccccc2C(=O)OCC(=O)N2CC(C)CC(C)C2)cc1 (stereo not given) | -24.9 | 2.91 µM [falling, partial curve] | 2.06 µM [falling, partial curve]
N=C1SCC(=O)N1c1ccccc1Cl | 23.6 | 0.206 µM [rising, full curve, poor fit] | 29.1 µM [falling, single point]
COc1ccc(-c2cc3ccccc3n2CC(O)CN2CCOCC2)cc1 (stereo not given) | 6.26 |  | 23.1 µM [rising, single point]
CCCCn1c(C)cc2c(c1=O)C1O[C@](c3ccc(OC)cc3)(Cc3cc(OC)c(OC)cc31)O2 | 8.44 |  | 
COC(=O)C1=NN(c2cccc(C)c2)C2C(=O)N(c3ccccc3OC)C(=O)C12 (stereo not given) | -47.6 | 32.6 µM [falling, partial curve, poor fit] | 4.61 µM [falling, full curve]

Structure (SMILES) | cell number change [%] | AC50 [1] | AC50 [2]
CC(C)C1=CC(=Nc2ccc(S(N)(=O)=O)cc2)C=C(C(C)C)C1=O | -30.2 | 11.6 µM [falling, single point] | 
Cc1c(Cl)cccc1N=C1SCCN1C(=O)CN1C(=O)NC2(CCCC2)C1=O | 107 | 16.4 µM [rising, single point] | 
COc1ccc(-c2nc(CS(=O)(=O)CC(=O)NCCc3ccccc3)c(C)o2)cc1 | -17.1 |  | 6.51 µM [falling, single point]
CC(=O)C(Sc1ncnc2c1nnn2-c1ccc(F)cc1)C(=O)N(C)C (stereo not given) |  | 0.259 µM [falling, full curve, poor fit] | 6.51 µM [falling, single point]
O=C(O)c1ccc(NCc2ccncc2)cc1 | -45.8 | 9.2 µM [falling, single point] | 
[O-][n+]1c2ccccc2cc2ccccc21 | -31.5 | 9.2 µM [falling, single point] | 0.103 µM [falling, full curve, poor fit]
CS(=O)(=O)c1cccc(C(=O)OCC(=O)Nc2ccc3c(c2)OCO3)c1 | -8.84 |  | 0.82 µM [falling, full curve, poor fit]
Cc1ccc(S(=O)(=O)N2CCCC2CNC(=O)C(=O)Nc2ccc(F)cc2)cc1 (stereo not given) | 81.1 | 11.6 µM [rising, partial curve] | 
Cc1cccc([N+](=O)[O-])c1C(=O)O | 7.96 |  | 29.1 µM [rising, partial curve, poor fit]
Clc1ccc(-c2nnc(CSc3nnc(-c4cccs4)n3Cc3ccccc3)o2)cc1 | -0.219 |  | 
CN(C)c1cccc(O)c1 | -5.05 |  | 
COC(=O)c1ccc(NC(=O)CN(c2ccc3c(c2)OCO3)S(C)(=O)=O)cc1 |  | 0.82 µM [rising, partial curve] | 
CCc1ccc(-c2cc(C)no2)cc1S(=O)(=O)N1CCN(c2ccc(C(C)=O)cc2)CC1 | -19.2 |  | 29.1 µM [falling, single point]
Cc1nn(C)c(Nc2ccc(Br)cc2)c1Br | -25.4 |  | 
COc1ccc(/C(O)=C/C(=O)C(=O)NNC(=O)c2ccccc2)cc1 |  |  | 0.116 µM [rising, full curve, poor fit]
COC(=O)C(C)Oc1ccc(-c2nccc(-c3ccccn3)n2)cc1 (stereo not given) | 11.8 |  | 2.91 µM [rising, full curve, poor fit]
NC(=O)Cn1cc(/C=N\NS(=O)(=O)c2ccc(Cl)cc2)c2ccccc21 | 30.1 |  | 
CCCCc1nc2ccccc2n1Cc1nnc2n1-c1ccccc1SC2 | 8.62 | 0.184 µM [rising, full curve] | 0.184 µM [rising, full curve]

An excerpt from above in order of length of the SMILES, ascending.
Structure (SMILES) | cell number change [%] | AC50 [1] | AC50 [2]
O=C(O)c1ccc(NCc2ccncc2)cc1 | -45.8 | 9.2 µM [falling, single point] | 
NC(=O)Cn1cc(/C=N\NS(=O)(=O)c2ccc(Cl)cc2)c2ccccc21 | 30.1 |  | 
COc1ccc(-c2nc(CS(=O)(=O)CC(=O)NCCc3ccccc3)c(C)o2)cc1 | -17.1 |  | 6.51 µM [falling, single point]
